From publication PMC11635738
These are yes or no findings as the source states them, for the method shown. In cells and extracts the contact can be indirect. Some entries that bind do so weakly or less than the wild type. Where a sequence is shown, tags or fusion partners need not be part of it.

T1: FLAG-SREBF1(N) WT (pcDNA3.1-FLAG-Srebf1(N)), N-terminus of SREBF1 (mouse) (UniProt Q9WTN3)
T1 sequence: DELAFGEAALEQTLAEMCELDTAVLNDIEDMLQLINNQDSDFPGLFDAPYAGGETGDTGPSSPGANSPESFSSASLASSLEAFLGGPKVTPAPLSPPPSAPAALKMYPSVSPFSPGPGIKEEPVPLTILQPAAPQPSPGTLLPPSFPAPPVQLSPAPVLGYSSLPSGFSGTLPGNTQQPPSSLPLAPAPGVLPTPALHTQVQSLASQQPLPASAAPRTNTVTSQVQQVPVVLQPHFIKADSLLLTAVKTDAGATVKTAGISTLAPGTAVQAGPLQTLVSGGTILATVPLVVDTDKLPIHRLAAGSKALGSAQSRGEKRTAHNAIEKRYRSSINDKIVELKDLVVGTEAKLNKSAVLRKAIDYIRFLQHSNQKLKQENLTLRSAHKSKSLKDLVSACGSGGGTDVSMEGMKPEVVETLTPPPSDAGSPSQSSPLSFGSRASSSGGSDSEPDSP

T2: FLAG full-length SREBF1 (pcDNA3.1-FLAG-Srebf1) (mouse) (UniProt Q9WTN3)
T2 sequence: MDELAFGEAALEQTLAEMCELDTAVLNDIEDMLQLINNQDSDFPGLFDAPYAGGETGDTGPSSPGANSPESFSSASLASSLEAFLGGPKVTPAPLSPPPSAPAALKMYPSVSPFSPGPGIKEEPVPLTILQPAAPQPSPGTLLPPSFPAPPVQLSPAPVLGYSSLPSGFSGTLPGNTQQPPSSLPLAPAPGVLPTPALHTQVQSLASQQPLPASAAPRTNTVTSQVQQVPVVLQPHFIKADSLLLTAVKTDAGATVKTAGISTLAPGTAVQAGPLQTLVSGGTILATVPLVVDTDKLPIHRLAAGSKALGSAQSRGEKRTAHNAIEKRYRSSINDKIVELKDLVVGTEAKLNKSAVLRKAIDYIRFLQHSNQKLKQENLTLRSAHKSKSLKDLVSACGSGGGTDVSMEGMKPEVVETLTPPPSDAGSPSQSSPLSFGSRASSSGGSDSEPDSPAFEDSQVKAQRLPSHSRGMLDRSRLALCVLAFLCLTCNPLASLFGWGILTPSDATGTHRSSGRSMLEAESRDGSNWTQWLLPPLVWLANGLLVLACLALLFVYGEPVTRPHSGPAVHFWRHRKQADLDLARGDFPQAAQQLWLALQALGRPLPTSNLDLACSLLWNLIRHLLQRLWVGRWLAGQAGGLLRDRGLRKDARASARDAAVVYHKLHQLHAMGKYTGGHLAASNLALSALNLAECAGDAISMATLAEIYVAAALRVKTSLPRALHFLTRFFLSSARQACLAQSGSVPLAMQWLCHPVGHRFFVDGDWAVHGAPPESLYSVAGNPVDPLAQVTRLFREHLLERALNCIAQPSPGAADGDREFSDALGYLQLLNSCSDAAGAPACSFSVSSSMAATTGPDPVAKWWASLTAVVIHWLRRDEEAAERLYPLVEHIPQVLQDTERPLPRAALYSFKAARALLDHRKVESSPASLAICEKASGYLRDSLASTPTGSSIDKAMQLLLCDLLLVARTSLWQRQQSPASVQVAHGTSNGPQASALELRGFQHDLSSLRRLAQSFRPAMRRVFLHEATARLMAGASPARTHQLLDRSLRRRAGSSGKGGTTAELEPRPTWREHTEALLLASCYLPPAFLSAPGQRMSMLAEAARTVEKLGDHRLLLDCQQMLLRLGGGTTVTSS


Experiments:
[1] = biological target: T1, FLAG-SREBF1(N) WT (pcDNA3.1-FLAG-Srebf1(N)), N-terminus of SREBF1 (mouse); assay: co-IP; HEK293T cells co-transfected with myc-mArmc5 and FLAG-Srebf1(N) WT or deletion mutants; lysis in TNE buffer (10 mM Tris-HCl, 150 mM NaCl, 1 mM EDTA, 1% NP40); anti-FLAG M2 Affinity Gel; elution with FLAG peptide; Western blot
[2] = biological target: T2, FLAG full-length SREBF1 (pcDNA3.1-FLAG-Srebf1) (mouse); assay: co-IP; HEK293T cells transfected with FLAG-Srebf1 (full length) and/or 2xMyc-SCAP together with V5-Armc5 and PA-Insig1; lysis in TNE buffer; anti-FLAG M2 Affinity Gel; elution with FLAG peptide; Western blot

binding [1]	binding [2]	Binder
binds	–	myc-ARMC5 (pcDNA3.1-myc-mArmc5) (protein, UniProt Q5EBP3 1-926) MAAARPALTDSLSFCLAQLTAAAGEGPGGGKDPATNETPLGRALLALRTRHIKAAEGIERFRARGGLRPLLALLRRTAAAGPAPSQAASGSAPSSVASAGSTPGHAPAAESLLTPSLPMRLRKTLDLALSILANCCTEGACRAEVRRLGGILPLVTILQCVKTDSIQNRTARALGNLAMEPESCRDIHSAGAVPFLVESLTACQDSQCLQSIVRALRNLADSPQHRLALAQQGAVRPLAELLATAPDPALTAALVRALLELSRGCSRACAEQLSLGGALGPLVSLASHPKRAIREAAILILANLCAQGLVRPALGNAGGVEVLLGELRRRRSPGGSSSATQQPLVRAVCLLCREAINRARLRDAGGLELLMGLLQDPGASAWHPRVVAALVGFLYDTGALGKLQALGLVPLLARQLCGEAGEEEEEGIEAASWDFPEERTSGQAEGGSFRSLRLWLISEGYAAGPGDISPDWSPERCPMPEPSESVSPTPGQTSMSTPRTLRKPGRIPAATPEEPWGQEGPALLLLSRFSQAPDPSGALVTGPALCGLLAYVTGAPGPPNPRALRILARLTCNPACLEAFVRTYGAALLRAWLVLGVSPDDWPVPHARPVHRSQHRELGEMLLQNLTVQAESPFGVGALTHLLLSGSPEDRVACALTLPFICRKPTLWRRLLLDQGGLRLLLTALTQPAPHPLFLFFAADSLSCLQGLVSPTASPVPLPALPLELDSPPPCLYEPLLGPAPAPAPDLHFVLDSGLQLPAQRAASAAASPFFRALLSGSFAEAQMDLVPLRGLSPGAAWPVLHHLHGCRGCGAALGPVPPPGQPLLGSKAEEALEAAGRFLLPALEEELEEAVGRIHLSPRGGPESVGEVFRLGRPRLAAHCARWTLEPGQCPRKRALALTGLVEAAGEEAGPLTEALLAVVMGIES
–	binds	V5-ARMC5 (pcDNA3.1-V5-Armc5; printed as pcDNA3.1-FLAG-V5-Armc5 in the legend of Figure 9B) (protein, UniProt Q5EBP3 1-926) MAAARPALTDSLSFCLAQLTAAAGEGPGGGKDPATNETPLGRALLALRTRHIKAAEGIERFRARGGLRPLLALLRRTAAAGPAPSQAASGSAPSSVASAGSTPGHAPAAESLLTPSLPMRLRKTLDLALSILANCCTEGACRAEVRRLGGILPLVTILQCVKTDSIQNRTARALGNLAMEPESCRDIHSAGAVPFLVESLTACQDSQCLQSIVRALRNLADSPQHRLALAQQGAVRPLAELLATAPDPALTAALVRALLELSRGCSRACAEQLSLGGALGPLVSLASHPKRAIREAAILILANLCAQGLVRPALGNAGGVEVLLGELRRRRSPGGSSSATQQPLVRAVCLLCREAINRARLRDAGGLELLMGLLQDPGASAWHPRVVAALVGFLYDTGALGKLQALGLVPLLARQLCGEAGEEEEEGIEAASWDFPEERTSGQAEGGSFRSLRLWLISEGYAAGPGDISPDWSPERCPMPEPSESVSPTPGQTSMSTPRTLRKPGRIPAATPEEPWGQEGPALLLLSRFSQAPDPSGALVTGPALCGLLAYVTGAPGPPNPRALRILARLTCNPACLEAFVRTYGAALLRAWLVLGVSPDDWPVPHARPVHRSQHRELGEMLLQNLTVQAESPFGVGALTHLLLSGSPEDRVACALTLPFICRKPTLWRRLLLDQGGLRLLLTALTQPAPHPLFLFFAADSLSCLQGLVSPTASPVPLPALPLELDSPPPCLYEPLLGPAPAPAPDLHFVLDSGLQLPAQRAASAAASPFFRALLSGSFAEAQMDLVPLRGLSPGAAWPVLHHLHGCRGCGAALGPVPPPGQPLLGSKAEEALEAAGRFLLPALEEELEEAVGRIHLSPRGGPESVGEVFRLGRPRLAAHCARWTLEPGQCPRKRALALTGLVEAAGEEAGPLTEALLAVVMGIES
